Results are given in words; binding and its absence hold for the method and conditions named. Binding seen in cells or lysates may run through a third protein. Some results given as binding are weak or reduced against the parent protein; the word gives no strength.

By UniProt entry, the sequences of proteins in these tests, tags left out. Where a name states a change or a piece, a line headed by the entry shows the natural chain unless it says otherwise.
UniProt P08069: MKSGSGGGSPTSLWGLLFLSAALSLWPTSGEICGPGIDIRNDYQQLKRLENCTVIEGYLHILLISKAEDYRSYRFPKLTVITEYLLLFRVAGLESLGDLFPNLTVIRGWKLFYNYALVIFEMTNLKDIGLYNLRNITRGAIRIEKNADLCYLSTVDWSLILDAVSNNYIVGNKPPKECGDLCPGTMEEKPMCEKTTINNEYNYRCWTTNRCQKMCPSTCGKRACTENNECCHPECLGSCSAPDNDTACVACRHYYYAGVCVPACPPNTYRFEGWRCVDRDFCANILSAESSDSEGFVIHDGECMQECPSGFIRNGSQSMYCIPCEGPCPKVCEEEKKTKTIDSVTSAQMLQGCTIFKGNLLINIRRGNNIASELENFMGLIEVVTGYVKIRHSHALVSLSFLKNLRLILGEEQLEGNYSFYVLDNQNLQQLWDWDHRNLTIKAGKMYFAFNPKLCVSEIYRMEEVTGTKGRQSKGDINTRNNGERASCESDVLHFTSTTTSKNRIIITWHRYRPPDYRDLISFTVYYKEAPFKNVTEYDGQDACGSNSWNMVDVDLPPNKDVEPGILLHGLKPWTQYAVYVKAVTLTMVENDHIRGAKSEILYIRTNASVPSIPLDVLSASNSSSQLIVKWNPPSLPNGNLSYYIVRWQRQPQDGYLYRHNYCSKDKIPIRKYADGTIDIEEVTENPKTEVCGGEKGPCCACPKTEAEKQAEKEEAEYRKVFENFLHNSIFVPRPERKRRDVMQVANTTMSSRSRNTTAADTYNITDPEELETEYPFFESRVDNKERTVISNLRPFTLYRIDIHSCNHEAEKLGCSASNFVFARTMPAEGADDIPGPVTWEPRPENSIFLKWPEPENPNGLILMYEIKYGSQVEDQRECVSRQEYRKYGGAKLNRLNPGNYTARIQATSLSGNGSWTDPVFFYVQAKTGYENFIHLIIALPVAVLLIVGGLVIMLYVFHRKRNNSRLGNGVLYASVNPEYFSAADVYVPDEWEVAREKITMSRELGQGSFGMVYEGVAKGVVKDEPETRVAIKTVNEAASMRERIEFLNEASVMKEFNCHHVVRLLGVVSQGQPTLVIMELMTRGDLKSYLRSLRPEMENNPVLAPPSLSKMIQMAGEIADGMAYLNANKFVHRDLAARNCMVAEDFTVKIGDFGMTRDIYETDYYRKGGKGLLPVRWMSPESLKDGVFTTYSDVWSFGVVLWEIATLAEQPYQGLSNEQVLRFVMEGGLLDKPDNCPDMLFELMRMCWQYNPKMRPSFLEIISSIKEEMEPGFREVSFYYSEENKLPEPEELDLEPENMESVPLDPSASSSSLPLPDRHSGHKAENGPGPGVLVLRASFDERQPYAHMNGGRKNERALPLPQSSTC

Assay [1] addresses Insulin-like growth factor-I receptor (IGF-IR) (human (endogenous in HaCat)), P08069. Kind of assay: co-IP; serum-starved HaCat cells stimulated with IGF1 10 nM for the indicated times, lysed in Na2CO3 0.5 M (pH 11); reciprocal immunoprecipitations of endogenous proteins, immunoblot. The note with it: remark: other sources report otherwise.
Assay [2] deals with Insulin-like growth factor-I receptor (IGF-IR) (human (endogenous in HaCat)) (UniProt P08069). The assay is described as above.

B1: Caveolin-1 (Cav-1), Q03135-1 1-178 (protein)
chain: MSGGKYVDSEGHLYTVPIREQGNIYKPNNKAMADELSEKQVYDAHTKEIDLVNRDPKHLNDDVVKIDFEDVIAEPEGTHSFDGIWKASFTTFTVTKYWFYRLLSALFGIPMALIWGIYFAILSFLHIWAVVPCIKSFLIEIQCISRVYSIYVHTVCDPLFEAVGKIFSNVRINLQKEI
As for B1, in assay [1], the binding entry is reported as “binds”.

B2: Polymerase I and Transcript Release Factor (PTRF/Cavin) (protein, UniProt Q6NZI2-1 1-390)
chain: MEDPTLYIVERPLPGYPDAEAPEPSSAGAQAAEEPSGAGSEELIKSDQVNGVLVLSLLDKIIGAVDQIQLTQAQLEERQAEMEGAVQSIQGELSKLGKAHATTSNTVSKLLEKVRKVSVNVKTVRGSLERQAGQIKKLEVNEAELLRRRNFKVMIYQDEVKLPAKLSISKSLKESEALPEKEGEELGEGERPEEDAAALELSSDEAVEVEEVIEESRAERIKRSGLRRVDDFKKAFSKEKMEKTKVRTRENLEKTRLKTKENLEKTRHTLEKRMNKLGTRLVPAERREKLKTSRDKLRKSFTPDHVVYARSKTAVYKVPPFTFHVKKIREGQVEVLKATEMVEVGADDDEGGAERGEAGDLRRGSSPDVHALLEITEESDAVLVDKSDSD
For B2, the binding entry in assay [2] was “binds”.
